According to patent US9938321B2, “Cyclic peptoid oligomers, pharmaceutical compositions and methods of using the same” (priority 2013, dated 2018):
In brackets after ≈: the same amount, converted by molar mass. Not every detail of the peptide structures is certain; ends, links or a residue may be inferred. Non-standard residues stand in square brackets, D forms with d. Residues, ends and D or L forms follow the SMILES beside them. Gly(N(CH2)3NH2) = NCCCNCC(=O)O; Nphe = O=C(O)CNCc1ccccc1

Legend:
Escherichia coli = details: cited from earlier work
Staphylococcus aureus = details: cited from earlier work
[1] = tested on: MRSA USA300 (S. aureus LAC); details: 50% NHS versus no serum
Protocol: The antimicrobial activities of these four compounds were evaluated in the presence of serum. Such a consideration is critical in evaluating the potential of antimicrobial compounds to be used systemically, as serum components (e.g. proteins) may complicate antimicrobial activity. The assay was conducted similarly as described above, with the media supplemented with 50% normal human serum (NHS).
Minimum Inhibitory Concentrations (MIC) were determined against S. aureus LAC in RPMI media supplemented with or without normal human serum (NHS). The 10% hemolytic dose was determined from lysis of human erythrocytes. A selectivity ratio (SR) is defined as HC10/MIC. Cytotoxicity assays were performed using a CellTiter kit with HeLa cells. […] TI: therapeutic index defined as LD50/MIC.
Antimicrobial susceptibility assays were conducted in 96-well plates using the broth microdilution procedure outlined in the document M07-A7 of the CLSI (Clinical and Laboratory Standards Institute. Methods for Dilution Antimicrobial Susceptibility Tests for Bacteria That Grow Aerobically-Seventh Edition: Approved Standard CLSI document M07-A7. CLSI, Wayne, USA, 2006). Screens against Staphylococcus aureus LAC, MW2, Newman, and RN6734 were conducted in RPMI (Roswell Park Memorial Institute) medium. […]

S. aureus LAC = assay: Scanning electron microscopy of treated cells (Example 1); assay type: cell-based, Staphylococcus aureus; details: sub-MIC, MIC, or supra-MIC; 1 hr or 18 hr
Description: AMPs have long been thought to exert their bactericidal activities by interacting with negatively-charged bacterial membranes (Zasloff, Nature 2002, 415, 389-395; Ivankin, et al, Angew. Chem. Int. Ed. 2010, 49, 8462-8465). While the exact mode of action has yet to be fully understood, the interaction of the AMP eventually leads to damage of the bacterial membrane that is visible by scanning electron microscopy (SEM). (Hartmann et al, 2010, Antimicrob Agents Ch 54, 3132-3142) SEM was used to examine the morphological changes which occur to the S. aureus cell surface upon exposure to peptoid antimicrobials (FIG. 2).
SEM samples were prepared following the procedure outlined in Hartmann et al ([…], Antimicrob Agents Ch 54:3132-3142). Mid-exponential S. aureus LAC in LB medium (10 g/L tryptone and 5 g/L yeast, pH 7.4) was prepared by diluting an overnight culture of S. aureus LAC in LB media till OD600˜0.4 (approximately 3 hours at 37° C.). […] After washing with PBS, the samples were treated with 30% ethanol for 10 minutes, 3% uranyl acetate (Electron Microscopy Sciences) in 30% ethanol/water, 50% ethanol for 10 minutes, and 70% ethanol overnight at 4° C. […]

NCCCN1CC(=O)N(Cc2ccccc2)CC(=O)N(CCCN)CC(=O)N(Cc2ccccc2)CC(=O)N(CCCN)CC(=O)N(Cc2ccccc2)CC1=O [Compound 23, C(NapNpm)3] (cyclo([Nphe][Gly(N(CH2)3NH2)][Nphe][Gly(N(CH2)3NH2)][Nphe][Gly(N(CH2)3NH2)]))
MIC (Escherichia coli): > 500 µg/mL | MIC (antimicrobial activity) (Staphylococcus aureus): 31.3 µg/mL (≈ 39.9 µM)

NCCCN1CC(=O)N(CC(c2ccccc2)c2ccccc2)CC(=O)N(CCCN)CC(=O)N(CC(c2ccccc2)c2ccccc2)CC(=O)N(CCCN)CC(=O)N(CC(c2ccccc2)c2ccccc2)CC1=O [Compound C3, C(NapNdp)3]
decrease in anti-microbial activity in serum [1]: approximately four-fold | cell morphology by SEM (S. aureus LAC): cell surface damage
